Data as given in PubChem BioAssay AID504784 (Drosophila RNAi Screening Center, 2011).
The screen tested about 17,000 reagents; this is an unselected part of those with a known target gene and a result. 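Each column is one replicate's B-score; the combined score over replicates was not deposited, so single values may mislead.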 The numbers tell different reagents against one gene apart. Names joined by + are all predicted targets of the reagent.

- Assay: 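Genome-wide knock-down for genes giving too much or too little stored lipid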 (primary screen)
- Cells: Drosophila Kc167 embryonic cells
- Reagents: long dsRNA against Drosophila genes, about 250 ng dsRNA per well
- Timing: 4 days
- Challenge: cells fed 400 µM oleic acid bound to BSA
- Read-out: 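Cells imaged and segmented; ratio of lipid droplet area to nuclear area, log-transformed, then normalised as a B-score over the screen; higher means more stored lipid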
- Scale: droplet/nuclear area B-score: higher = more stored lipid (overstorage)

no.	gene	dsRNA no.	droplet/nuclear area B-score, replicate 1	droplet/nuclear area B-score, replicate 2	droplet/nuclear area B-score, replicate 3
1	mRpS17 (mitochondrial ribosomal protein S17)	1	1.49	1.87	
2	Xe7	1	0.151	0.13	
3	JMJD4 (Jumonji domain containing 4)	1	0.215	1.13	
4	Cyp9c1 (Cytochrome P450 9c1)	1	0.757	1.79	
5	CG17618 (retired record) + CG45049	1	-2.6	1.13	
6	CG17618 (retired record) + CG45049	2	0.656	3.97	
7	CG17618 (retired record) + CG45049	3	0.006	1.08	
8	CG10657	1	-0.485	-0.599	1.8
9	CG1236	1	0.78	0.103	
10	Timp (Tissue inhibitor of metalloproteases)	1	0.227	0.00171	
11	Gos28 (Golgi SNARE, 28 kDa)	1	-0.345	-0.863	
12	Gos28 (Golgi SNARE, 28 kDa)	2	-0.409	-0.706	
13	CG34199	1	0.41	0.106	
14	CG8490	1	0.411	0.389	
15	CG13795	1	0.888	1.2	
16	CG14868	1	-0.8	-0.198	
17	CG13437	1	0.107	0.234	
18	eIF3l (eukaryotic translation initiation factor 3 subunit l)	1	1.12	0.328	
19	CG5665	1	-1.28	-1.14	
20	CG8191 + CG12379	1	-0.11		

Next part (4 carried over from the part before).
no.	gene	dsRNA no.	droplet/nuclear area B-score, replicate 1	droplet/nuclear area B-score, replicate 2	droplet/nuclear area B-score, replicate 3
17	CG13437	1	0.107	0.234	
18	eIF3l (eukaryotic translation initiation factor 3 subunit l)	1	1.12	0.328	
19	CG5665	1	-1.28	-1.14	
20	CG8191 + CG12379	1	-0.11		
21	CG14285	1	-0.271	0.0972	
22	Ugt302E1 (UDP-glycosyltransferase family 302 member E1)	1	4.38	1.1	
23	CG1523	1	1.28		
24	CG14568	1	1.32	-0.708	
25	CG4622	1	-0.444	0.346	
26	CG4036	1	-1.66	0.702	
27	CG17776	1	-1.99	-1.23	
28	CG14355	1	7.97	0.00624	
29	nocte (no circadian temperature entrainment)	1	-1.29	1.07	0.0415
30	Nha2 (Na[+]/H[+] hydrogen antiporter 2)	1	-1.29	-0.967	
31	Nha2 (Na[+]/H[+] hydrogen antiporter 2)	2	0.00686	-0.00824	
32	Nha2 (Na[+]/H[+] hydrogen antiporter 2)	3	0.142	-0.512	
33	arg (arginase)	1	-0.299		
34	sno (strawberry notch)	1	-0.102	0.428	0.905
35	gammaSnap1 (gamma Soluble NSF attachment protein 1)	1	0.159	0.858	
36	Hyccin	1	-1.3	-2.17	
37	CG15136	1	0.234	0.725	
38	knon (knotted onions)	1	-0.0156	0.313	
39	Ulp1	1	-0.825	-1.16	
40	dUTPase (Deoxyuridine triphosphatase)	1	0.993	1.42	
41	nrv2 (nervana 2)	1	0.701	0.523	
42	nrv2 (nervana 2)	2	-0.0275	0.542	
43	CG8135 + BBIP1	1	2.69	1.49	
44	CG8135 + BBIP1	2	-0.719	-1.26	
45	inv (invected)	1	-0.758	-0.129	
46	ND-39 (NADH dehydrogenase (ubiquinone) 39 kDa subunit)	1	5.55	0.925	1.89
47	DUBAI (Deubiquitinating apoptotic inhibitor)	1	0.404	0.831	
48	Polr3E (RNA polymerase III subunit E)	1	0.144	2.99	
49	CG14292	1	-0.0296	0.873	
50	CG12895	1	0.307	0.16	
51	Aasdh (Aminoadipate-semialdehyde dehydrogenase)	1	-0.182	0.712	
52	CG32318 + Klp61F + Psf1	1	-0.344	0.912	
53	CG14974	1	-0.431	-1.27	
54	dpr1 (defective proboscis extension response 1)	1	-1.1	-0.936	
55	CG34126	1	0.0452	-0.93	
56	CG34126	2	-0.0767	-1.08	
